These results are taken from patent US6436682B1, “Luciferases, fluorescent proteins, nucleic acids encoding the luciferases and fluorescent proteins and the use thereof in diagnostics, high throughput screening and novelty items” (Prolume, Ltd., priority 1998, dated 2002).

This series can be described thus: Fluorescence excitation and emission spectra of recombinant GFPs. The class given is physicochemical.

B1: Renilla mulleri GFP: green fluorescent protein of Renilla mulleri, 238 amino acids, SEQ ID No. 16 (protein, listed as Renilla mulleri)
chain: MSKQILKNTCLQEVMSYKVNLEGIVNNHVFTMEGCGKGNILFGNQLVQIRVTKGAPLPFAFDIVSPAFQYGNRTFTKYPNDISDYFIQSFPAGFMYERTLRYEDGGLVEIRSDINLIEDKFVYRVEYKGSNFPDDGPVMQKTILGIEPSFEAMYMNNGVLVGEVILVYKLNSGKYYSCHMKTLMKSKGVVKEFPSYHFIQHRLEKTYVEDGGFVEQHETAIAQMTSIGKPLGSLHEWV
modifications: Renilla mulleri Green Fluorescent Protein (GFP)
Turning to B1, the fluorescence excitation maximum (partially purified recombinant protein) is given as about 498 nm. Besides, the fluorescence emission maximum (recombinant protein) was 506 nm.
